Results from PMC6018630.
These are yes or no findings as the source states them, for the method shown. Binding seen in cells or lysates may run through a third protein. Some entries that bind do so weakly or less than the wild type.

Chains of the proteins cited; added tags and fusions are not shown. Residues count along the entry.
UniProt P47774, residues 25-378: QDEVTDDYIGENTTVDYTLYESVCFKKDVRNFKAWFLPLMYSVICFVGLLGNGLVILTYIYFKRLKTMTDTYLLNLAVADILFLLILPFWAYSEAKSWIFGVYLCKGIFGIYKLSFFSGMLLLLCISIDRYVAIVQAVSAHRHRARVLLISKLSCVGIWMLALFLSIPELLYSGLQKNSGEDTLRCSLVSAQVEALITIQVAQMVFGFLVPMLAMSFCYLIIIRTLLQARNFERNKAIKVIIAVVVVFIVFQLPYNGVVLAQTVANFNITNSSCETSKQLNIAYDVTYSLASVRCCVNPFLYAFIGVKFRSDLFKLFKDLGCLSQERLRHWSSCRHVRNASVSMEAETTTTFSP

Molecular target: CCR7 (mouse (endogenous in bone marrow-derived DCs)) (UniProt P47774)
Experiment: FRET or BRET; flow-cytometric FRET between PE-labelled and APC-labelled anti-CCR7 (clone 4B12, 1:200, 45 min, 37 °C, Fc block) on BMDCs left unstimulated or stimulated with LPS or HDM, with or without 10 mM glucose or 10 mM 2-DG for 6 h; BD LSR Fortessa without compensation

binding: binds
Substance: CCR7 (from UniProt P47774 25-378) (receptor)
